Consider two substances from article PMC12394690.

By UniProt entry, the sequences of proteins in these tests, tags left out.
UniProt O00327: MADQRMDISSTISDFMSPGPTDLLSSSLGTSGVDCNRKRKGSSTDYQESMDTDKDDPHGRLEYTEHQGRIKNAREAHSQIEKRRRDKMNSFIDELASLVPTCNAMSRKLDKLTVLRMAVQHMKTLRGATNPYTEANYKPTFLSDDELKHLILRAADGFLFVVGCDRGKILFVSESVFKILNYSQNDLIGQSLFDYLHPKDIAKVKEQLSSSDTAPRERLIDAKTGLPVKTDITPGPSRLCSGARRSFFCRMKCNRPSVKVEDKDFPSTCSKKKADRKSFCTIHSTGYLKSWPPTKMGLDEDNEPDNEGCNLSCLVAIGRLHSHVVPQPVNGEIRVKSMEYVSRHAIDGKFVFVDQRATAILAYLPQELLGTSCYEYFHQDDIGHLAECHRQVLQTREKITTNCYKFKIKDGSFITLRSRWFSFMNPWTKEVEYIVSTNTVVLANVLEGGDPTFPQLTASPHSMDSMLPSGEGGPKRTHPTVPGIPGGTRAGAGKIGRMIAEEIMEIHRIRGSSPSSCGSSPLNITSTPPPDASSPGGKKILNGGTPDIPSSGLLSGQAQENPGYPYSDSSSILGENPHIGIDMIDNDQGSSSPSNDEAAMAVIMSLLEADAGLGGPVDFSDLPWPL
UniProt Q16531: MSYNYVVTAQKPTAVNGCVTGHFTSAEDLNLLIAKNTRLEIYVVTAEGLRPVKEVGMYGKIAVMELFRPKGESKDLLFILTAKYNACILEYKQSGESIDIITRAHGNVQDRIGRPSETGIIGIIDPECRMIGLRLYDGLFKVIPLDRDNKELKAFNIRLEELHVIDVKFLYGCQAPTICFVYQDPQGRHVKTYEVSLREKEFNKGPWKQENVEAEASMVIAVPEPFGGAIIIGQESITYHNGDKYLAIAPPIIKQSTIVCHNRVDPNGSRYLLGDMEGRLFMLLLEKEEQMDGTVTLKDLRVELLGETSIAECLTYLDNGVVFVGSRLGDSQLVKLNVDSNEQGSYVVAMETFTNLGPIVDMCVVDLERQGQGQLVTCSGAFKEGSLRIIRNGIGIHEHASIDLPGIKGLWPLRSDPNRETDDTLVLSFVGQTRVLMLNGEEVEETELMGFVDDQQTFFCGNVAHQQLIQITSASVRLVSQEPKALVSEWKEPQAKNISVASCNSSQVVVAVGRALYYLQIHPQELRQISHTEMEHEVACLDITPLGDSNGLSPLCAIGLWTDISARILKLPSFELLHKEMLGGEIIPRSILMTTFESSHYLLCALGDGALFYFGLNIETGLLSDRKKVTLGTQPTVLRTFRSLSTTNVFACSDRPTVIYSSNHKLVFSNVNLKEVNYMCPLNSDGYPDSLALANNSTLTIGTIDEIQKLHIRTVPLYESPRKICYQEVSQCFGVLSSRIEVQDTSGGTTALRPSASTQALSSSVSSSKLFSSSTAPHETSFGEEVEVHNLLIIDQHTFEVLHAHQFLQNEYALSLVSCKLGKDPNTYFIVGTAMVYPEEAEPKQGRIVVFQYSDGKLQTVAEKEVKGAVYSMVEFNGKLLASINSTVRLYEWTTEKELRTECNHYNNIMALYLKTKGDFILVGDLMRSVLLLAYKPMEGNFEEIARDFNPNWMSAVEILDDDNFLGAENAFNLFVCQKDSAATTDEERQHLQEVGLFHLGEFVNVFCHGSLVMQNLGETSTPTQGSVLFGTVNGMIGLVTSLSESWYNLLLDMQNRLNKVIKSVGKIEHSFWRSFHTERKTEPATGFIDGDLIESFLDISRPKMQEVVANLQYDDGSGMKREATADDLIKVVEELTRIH

The assay concerns the target T1, DDB1- and CUL4-associated factor 7 (DCAF7), expressed from a plasmid (UniProt P61962).
T1 sequence: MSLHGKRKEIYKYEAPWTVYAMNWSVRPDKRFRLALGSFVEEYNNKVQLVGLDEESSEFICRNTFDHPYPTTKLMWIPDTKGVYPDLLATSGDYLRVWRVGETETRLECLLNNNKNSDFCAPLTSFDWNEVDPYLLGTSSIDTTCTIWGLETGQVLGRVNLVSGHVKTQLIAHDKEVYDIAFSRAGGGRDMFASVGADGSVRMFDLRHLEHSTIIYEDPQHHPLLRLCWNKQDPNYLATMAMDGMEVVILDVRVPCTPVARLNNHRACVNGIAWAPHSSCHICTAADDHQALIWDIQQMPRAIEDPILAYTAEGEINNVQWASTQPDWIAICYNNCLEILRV
Nature of the assay: affinity purification with mass spectrometry; immunoprecipitation of DCAF7, MS/MS, quantitative proteomics (volcano plot); details in the supplementary methods.

No constants are given. Whether binding was seen depends on the method and setting. Binding seen in cells or lysates may run through a third protein. These calls come from enrichment with a bait or labelling near it, and not all partners need be listed.

Turning to “BMAL1, endogenous (from UniProt O00327 1-626)”, the binding entry is on record as “binds”.
With “DDB1, found in the DCAF7 IP-MS/MS (from UniProt Q16531 1-1140)” the entry was “binds”.
